These are yes or no findings as the source states them, for the method shown. Some binding calls cover weakened binding; strength is not graded here.
Target: T1, NF-κB p50 (human (endogenous in AGS)), P19838
T1 chain: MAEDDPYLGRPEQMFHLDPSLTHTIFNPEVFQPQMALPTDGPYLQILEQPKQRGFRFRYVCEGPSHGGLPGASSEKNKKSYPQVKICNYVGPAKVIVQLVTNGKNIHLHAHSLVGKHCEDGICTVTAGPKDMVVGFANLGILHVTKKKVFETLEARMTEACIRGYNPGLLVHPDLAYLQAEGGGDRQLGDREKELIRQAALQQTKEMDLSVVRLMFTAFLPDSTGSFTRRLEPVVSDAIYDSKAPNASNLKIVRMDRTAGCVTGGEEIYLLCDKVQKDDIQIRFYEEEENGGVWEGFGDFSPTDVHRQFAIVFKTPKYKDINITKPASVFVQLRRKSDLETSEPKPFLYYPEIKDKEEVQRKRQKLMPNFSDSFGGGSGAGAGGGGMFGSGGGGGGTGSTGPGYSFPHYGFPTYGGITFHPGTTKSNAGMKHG
Assay: native gel or EMSA; supershift: nuclear extracts (10 µg) of H. pylori-infected AGS cells with a 32P-labelled probe of the NF-κB site of the CCL20 promoter and 0.4 µg antibody to p65 or p50, room temperature, 6% native polyacrylamide gel in TGE buffer
Conditions: remark: other sources report otherwise

- binding: binds
B1: NF-κB p50, P19838 1-433 (protein)
chain: T1 chain

— PMC4019584
